Results as given in publication PMC11589570, “Critical assessment of LC3/GABARAP ligands used for degrader development and ligandability of LC3/GABARAP binding pockets” (Nature Communications, 2024).
Values joined by “and” are separate entries in the source; they are usually repeats but may differ in a detail not shown here. Identical values can stand only once. The source gives many values for each of these; only a part stands here.

Tested on: U2OS cells
Experiment: Cell growth assay (IncuCyte confluence over 72 h)
Type: cell-based
Set-up: key: % of well area covered by cells (confluence)
Conditions: listed as AN2
Method: Cell growth assay: Cell confluence (phase) from RPE1 (hTERT RPE-1, ATCC CLR_4000) or U2OS (ATCC, HTB-96) cell lines were monitored over time with the IncuCyte S3 (Sartiorius, Germany) in 384-well plates in 50 ul DMEM media, supplemented with 10% Fetal Bovine Serum (FBS) 1% penicillin/Streptomycin and incubated 24 h before treatment. Experiment was performed as described in Cano-Franco et al.. […] Cell confluence is represented as % of area covered by cells. Each data point represents the average ratio or confluence obtained from three individual wells of the plate.

SMILES: O=c1cc(-c2ccccc2)c2c(O)cc(O)cc2o1 [compound 2]
- U2OS cell growth (3 uM, time 12 h): 47.3303
- U2OS cell growth (3 uM, time 14 h): 60.2503 and 54.9602 and 48.3174
- U2OS cell growth (3 uM, time 16 h): 67.2719 and 60.345 and 55.6492
- U2OS cell growth (3 uM, time 18 h): 65.8385 and 62.0183 and 52.3569
- U2OS cell growth (3 uM, time 20 h): 68.2939 and 61.4907 and 55.3665
- U2OS cell growth (3 uM, time 22 h): 69.7247 and 71.1481 and 59.0654
- U2OS cell growth (3 uM, time 24 h): 71.5118 and 72.011 and 58.2123
- U2OS cell growth (3 uM, time 26 h): 74.6971 and 74.1434 and 62.6924
- U2OS cell growth (3 uM, time 28 h): 79.2385 and 79.2925 and 68.5776
- U2OS cell growth (3 uM, time 30 h): 81.3865 and 78.444 and 67.74
- U2OS cell growth (3 uM, time 32 h): 78.9088 and 81.2118 and 70.9288
- U2OS cell growth (3 uM, time 34 h): 79.7336 and 82.5552 and 69.8773
- U2OS cell growth (3 uM, time 36 h): 84.1266 and 83.7391 and 74.7579
- U2OS cell growth (3 uM, time 38 h): 85.3594 and 84.6235 and 80.7257
- U2OS cell growth (3 uM, time 40 h): 90.6298 and 89.6715 and 82.8177
- U2OS cell growth (3 uM, time 42 h): 91.4026 and 91.5867 and 86.9515
- U2OS cell growth (3 uM, time 44 h): 91.9788 and 92.6416 and 86.3135
- U2OS cell growth (3 uM, time 46 h): 89.5194 and 91.2335 and 79.5849
- U2OS cell growth (3 uM, time 48 h): 94.5852 and 95.1394 and 91.3356
- U2OS cell growth (3 uM, time 50 h): 93.6594 and 94.2364 and 85.1466
- U2OS cell growth (3 uM, time 52 h): 94.9989 and 96.9567 and 93.7392
- U2OS cell growth (3 uM, time 54 h): 92.1117 and 97.7411 and 88.2021
- U2OS cell growth (3 uM, time 56 h): 98.3681 and 98.7929 and 95.4442
- U2OS cell growth (3 uM, time 58 h): 96.9677 and 98.7875 and 95.8566
- U2OS cell growth (3 uM, time 60 h): 99.2543 and 99.6203 and 98.4047
- U2OS cell growth (3 uM, time 62 h): 99.2189 and 99.1209 and 98.7755
- U2OS cell growth (3 uM, time 64 h): 99.1725 and 99.2312 and 99.3386
- U2OS cell growth (3 uM, time 66 h): 98.8673 and 99.823 and 99.0094
- U2OS cell growth (3 uM, time 68 h): 99.7774 and 99.7996 and 99.6577
- U2OS cell growth (3 uM, time 70 h): 99.4148 and 99.9601 and 99.5644
- U2OS cell growth (3 uM, time 72 h): 99.5184 and 99.9025 and 99.8766
- U2OS cell growth (5 uM, time 12 h): 58.3667 and 59.3748 and 59.5417
- U2OS cell growth (5 uM, time 14 h): 59.1899 and 56.0347 and 57.3567
- U2OS cell growth (5 uM, time 16 h): 64.9176 and 65.5034 and 64.6862
- U2OS cell growth (5 uM, time 18 h): 64.8737 and 67.459 and 65.654
- U2OS cell growth (5 uM, time 20 h): 65.0583 and 61.9186 and 61.8898
- U2OS cell growth (5 uM, time 22 h): 70.1081 and 69.6092 and 70.29
- U2OS cell growth (5 uM, time 24 h): 72.4263 and 68.7022 and 68.1645
- U2OS cell growth (5 uM, time 26 h): 76.3189 and 75.1556 and 72.288
- U2OS cell growth (5 uM, time 28 h): 77.0985 and 76.5762 and 77.1285
- U2OS cell growth (5 uM, time 30 h): 79.5134 and 80.4662 and 77.4654
- U2OS cell growth (5 uM, time 32 h): 79.4795 and 78.5459 and 81.9491
- U2OS cell growth (5 uM, time 34 h): 78.2664 and 86.1963 and 84.2226
- U2OS cell growth (5 uM, time 36 h): 82.1073 and 86.138 and 85.1457
- U2OS cell growth (5 uM, time 38 h): 82.2171 and 87.0231 and 87.4323
- U2OS cell growth (5 uM, time 40 h): 87.6039 and 91.3263 and 89.5129
- U2OS cell growth (5 uM, time 42 h): 89.8133 and 92.5442 and 89.9448
- U2OS cell growth (5 uM, time 44 h): 89.7969 and 96.5389 and 93.1186
- U2OS cell growth (5 uM, time 46 h): 91.4082 and 95.5349 and 92.2577
- U2OS cell growth (5 uM, time 48 h): 92.0979 and 96.8453 and 95.0219
- U2OS cell growth (5 uM, time 50 h): 92.2626 and 97.6963 and 94.9963
- U2OS cell growth (5 uM, time 52 h): 95.8266 and 99.082 and 96.9673
- U2OS cell growth (5 uM, time 54 h): 95.3688 and 98.169 and 96.4394
- U2OS cell growth (5 uM, time 56 h): 97.3347 and 98.763 and 97.9524
- U2OS cell growth (5 uM, time 58 h): 98.1995 and 99.4231 and 98.2095
- U2OS cell growth (5 uM, time 60 h): 98.9514 and 99.809 and 99.0075
- U2OS cell growth (5 uM, time 62 h): 99.1809 and 99.7739 and 99.1674
- U2OS cell growth (5 uM, time 64 h): 98.9136 and 99.7481 and 98.9495
- U2OS cell growth (5 uM, time 66 h): 99.2747 and 99.6822 and 99.2362
- U2OS cell growth (5 uM, time 68 h): 99.7498 and 99.7893 and 99.7382
- U2OS cell growth (5 uM, time 70 h): 99.6222 and 99.9506 and 99.7738
- U2OS cell growth (5 uM, time 72 h): 99.9222 and 99.9624 and 99.876
- U2OS cell growth (10 uM, time 12 h): 51.0617 and 38.8025 and 46.5429
- U2OS cell growth (10 uM, time 14 h): 52.0659 and 37.8652 and 50.9249
- U2OS cell growth (10 uM, time 16 h): 58.7346 and 43.8912 and 52.5423
- U2OS cell growth (10 uM, time 18 h): 58.5243 and 45.0108 and 56.1075
- U2OS cell growth (10 uM, time 20 h): 56.1159 and 45.0556 and 56.595
- U2OS cell growth (10 uM, time 22 h): 61.3912 and 49.4998 and 58.1228
- U2OS cell growth (10 uM, time 24 h): 67.8342 and 54.0898 and 65.4691
- U2OS cell growth (10 uM, time 26 h): 70.5452 and 54.7025 and 63.5804
- U2OS cell growth (10 uM, time 28 h): 71.1038 and 55.8489 and 62.8634
- U2OS cell growth (10 uM, time 30 h): 76.1344 and 60.197 and 67.6434
- U2OS cell growth (10 uM, time 32 h): 77.644 and 63.1438 and 72.2623
- U2OS cell growth (10 uM, time 34 h): 81.9269 and 65.1551 and 72.7491
- U2OS cell growth (10 uM, time 36 h): 83.8096 and 69.5145 and 77.9628
- U2OS cell growth (10 uM, time 38 h): 85.0579 and 70.8093 and 79.5497
- U2OS cell growth (10 uM, time 40 h): 87.1841 and 73.8989 and 82.297
- U2OS cell growth (10 uM, time 42 h): 89.4752 and 78.3857 and 84.6775
- U2OS cell growth (10 uM, time 44 h): 90.8213 and 82.0038 and 86.9963
- U2OS cell growth (10 uM, time 46 h): 87.7337 and 79.0012 and 86.7996
- U2OS cell growth (10 uM, time 48 h): 95.1611 and 86.212 and 89.6585
- U2OS cell growth (10 uM, time 50 h): 93.3146 and 85.5346 and 90.1258
- U2OS cell growth (10 uM, time 52 h): 96.1309 and 90.0055 and 93.1913
- U2OS cell growth (10 uM, time 54 h): 96.3062 and 91.0732 and 93.4648
- U2OS cell growth (10 uM, time 56 h): 97.1457 and 92.8802 and 95.1761
- U2OS cell growth (10 uM, time 58 h): 98.3214 and 95.9305 and 96.2979
- U2OS cell growth (10 uM, time 60 h): 98.3167 and 97.5634 and 97.7159
- U2OS cell growth (10 uM, time 62 h): 99.0391 and 96.3875 and 98.2911
- U2OS cell growth (10 uM, time 64 h): 99.2508 and 97.1285 and 98.8507
- U2OS cell growth (10 uM, time 66 h): 99.3631 and 98.1565 and 98.9392
- U2OS cell growth (10 uM, time 68 h): 99.4876 and 98.0047 and 99.1042
- U2OS cell growth (10 uM, time 70 h): 99.6136 and 99.1959 and 99.4943
- U2OS cell growth (10 uM, time 72 h): 99.7391 and 99.7947 and 99.9157
